Protein sequences, listed by entry. Tags and fused reporters are not part of them.
UniProt P26038: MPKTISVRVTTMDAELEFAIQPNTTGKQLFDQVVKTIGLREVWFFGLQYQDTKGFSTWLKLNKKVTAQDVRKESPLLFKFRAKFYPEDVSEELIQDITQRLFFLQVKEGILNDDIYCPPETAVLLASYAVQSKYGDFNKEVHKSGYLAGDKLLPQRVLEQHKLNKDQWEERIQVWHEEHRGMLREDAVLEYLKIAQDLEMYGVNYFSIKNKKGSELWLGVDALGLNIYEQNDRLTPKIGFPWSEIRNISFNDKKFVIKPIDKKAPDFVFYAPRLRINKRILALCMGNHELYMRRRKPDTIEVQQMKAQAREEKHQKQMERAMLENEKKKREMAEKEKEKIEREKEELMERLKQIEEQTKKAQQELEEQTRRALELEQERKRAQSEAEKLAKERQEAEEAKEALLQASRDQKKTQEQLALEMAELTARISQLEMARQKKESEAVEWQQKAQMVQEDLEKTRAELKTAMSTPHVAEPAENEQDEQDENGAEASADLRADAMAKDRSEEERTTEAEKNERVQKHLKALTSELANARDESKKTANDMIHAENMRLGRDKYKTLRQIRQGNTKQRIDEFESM

In PMC8427838:

Target: T1, GST-TMIGD1 (GST fusion of the cytoplasmic domain of human TMIGD1) (human) (UniProt Q6UXZ0)
T1 sequence: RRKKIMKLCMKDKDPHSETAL
Experiment: affinity purification with mass spectrometry; GST-TMIGD1 bound via glutathione to agarose resin, incubated with whole cell lysate of 786-0 cells; captured proteins resolved on SDS-PAGE, bands excised, LC-MS/MS; only the target purified

moesin (endogenous, 786-0 renal carcinoma cells) (from UniProt P26038 1-577)
binding: binds

No constants are given. Whether binding was seen depends on the method and setting. Binding seen in cells or lysates may run through a third protein. Here binding means that the protein was enriched with, or labelled near, the bait; the list need not be complete. Where a sequence is shown, tags or fusion partners need not be part of it.
